Experimental data reported in patent US12018048B2 (BOEHRINGER INGELHEIM ANIMAL HEALTH USA INC., priority 2015, dated 2024).

Assay: general procedure: peptide synthesis; carbodiimides with HOBt; BOP, PyBOP, PyBrOP; TBTU/HBTU, HATU (listed as usable r)
Settings: coupling step

Q: With “(1R)-1-[[(2S)-1-[2-(benzyloxy)-2-oxoethoxy]-3-cyclopropyl-1-oxopropan-2-yl](methyl)carbamoyl]-2-[4-(oxan-4-yl)phenyl]ethyl (2S)-2-[[(tert-butoxy)carbonyl](methyl)amino]-4-fluoro-4-methylpentanoate” as the substance, how does the step yield read?
A: 42%

Q: For “(1R)-1-[[(2S)-1-[[(2R)-1-(benzyloxy)-1-oxopropan-2-yl]oxy]-3-cyclopropyl-1-oxopropan-2-yl](m-eth-yl)carbamoyl]-2-[4-(oxan-4-yl)phenyl]ethyl (2S)-2-[[(tert-butoxy)carbonyl](methyl)amino]-4-fluoro-4-methylpentanoate”, which step yield is on record?
A: 68%

Q: Which step yield does the source give for “(1R)-1-[[(2S)-1-[[(2R)-1-(benzyloxy)-3-[4-(oxan-4-yl)phenyl]-1-oxopropan-2-yl]oxy]-4-fluoro-4-methyl-1-oxopentan-2-yl](methyl)carbamoyl]ethyl (2S)-2-[[(tert-butoxy)carbonyl](methyl)amino]-4-methylpentanoate” here?
A: 76%

Q: Which step yield does the source give for “(2R)-1-(benzyloxy)-1-oxopropan-2-yl (2S)-2-[(2R)-2-[[(2S)-2-[[(tert-butoxy)carbonyl](methyl)amino]-3-cyclopropylpropanoyl]oxy]-N-methyl-3-[4-(morpholin-4-yl)phenyl]propanamido]-4-methylpentanoate” here?
A: 59%

Q: For “(2R)-1-(benzyloxy)-1-oxopropan-2-yl (2S)-2-[(2R)-2-[[(2S)-2-[[(tert-butoxy)carbonyl](methyl)amino]-3-cyclopropylpropanoyl]oxy]-N-methyl-3-[6-(morpholin-4-yl)pyridin-3-yl]propanamido]-4-methylpentanoate”, which step yield is on record?
A: 52%

Q: For “(2R)-1-(benzyloxy)-3-[4-(3,6-dihydro-2H-pyran-4-yl)phenyl]-1-oxopropan-2-yl (2S)-2-[(2R)-2-[(1-[[(tert-butoxy)carbonyl](methyl)amino]cyclopropyl)carbonyloxy]—N-methylpropanamido]-4-fluoro-4-methylpentanoate”, which step yield is on record?
A: 60%

Q: For “(S)—((R)-1-(((S)-1-((R)-1-(benzyloxy)-1-oxopropan-2-yloxy)-3-cyclopropyl-1-oxopropan-2-yl)(methyl)amino)-3-(4-morpholinophenyl)-1-oxopropan-2-yl) 2-(tert-butoxycarbonyl(methyl)amino)-3-cyclopropylpropanoate”, which step yield is on record?
A: 76%

Q: For “(S)—((R)-1-(((S)-1-((R)-1-(benzyloxy)-1-oxopropan-2-yloxy)-3-cyclopropyl-1-oxopropan-2-yl)(methyl)amino)-3-(4-morpholinophenyl)-1-oxopropan-2-yl) 2-(tert-butoxycarbonyl(methyl)amino)-4-fluoro-4-methylpentanoate”, which step yield is on record?
A: 65%

Same assay, conditions: cyclisation step

Q: With “(3S,6R,9S,12R,15S,18R,21S,24R)-3,15-bis(cyclopropylmethyl)-9,21-bis(2-fluoro-2-methylpropyl)-4,-10,12,16,22,24-hexamethyl-6,18-bis([[4-(oxan-4-yl)phenyl]methyl])-1,7,13,19-tetraoxa-4,10,16,22-te-traazacyclotetracosan-2,5,8,11,14,17,20,23-octone” as the substance, how does the cyclisation yield read?
A: 14%

Q: With “(3S,6R,9S,15S,18R,21S)-3,15-bis(cyclopropylmethyl)-9,21-bis(2-fluoro-2-methylpropyl)-4,10,16,22-tetramethyl-6,18-bis([[4-(oxan-4-yl)phenyl]methyl])-1,7,13,19-tetraoxa-4,10,16,22-tetraazacyclotetracosan-2,5,8,11,14,17,20,23-octone” as the substance, how does the cyclisation yield read?
A: 33%

Q: Which cyclisation yield does the source give for “(6R,9S,12R,15S,18R,21S,24R)-9,21-bis(2-fluoro-2-methylpropyl)-4,10,12,16,22,24-hexamethyl-15-(2-methylpropyl)-6,18-bis([[4-(oxan-4-yl)phenyl]methyl])-7,13,19,25-tetraoxa-4,10,16,22-tetraazaspiro[2.23]hexacosan-5,8,11,14,17,20,23,26-octone” here?
A: 39%

Q: Which cyclisation yield does the source give for “(6R,9S,12R,20R,23S,26R)-9,23-bis(2-fluoro-2-methylpropyl)-4,10,12,18,24,26-hexamethyl-6,20-bis([[4-(oxan-4-yl)phenyl]methyl])-7,13,21,27-tetraoxa-4,10,18,24-tetraazadispiro[2.11.2^[15].11^[3]]octacosan-5,8,11,14,19,22,25,28-octone” here?
A: 29%

Same assay, conditions: cyclisation step, on linear precursor OAC6-1

Q: Which cyclisation yield does the source give for “(3S,6R,9S,12R,15S,18R,21S,24R)-3,9,15,21-tetrakis(cyclopropylmethyl)-4,10,12,16,22,24-hexamethyl-6,18-bis([[4-(morpholin-4-yl)phenyl]methyl])-1,7,13,19-tetraoxa-4,10,16,22-tetraazacyclotetracosan-2,5,8,11,14,17,20,23-octone” here?
A: 13%

Same assay, conditions: cyclisation step, on linear precursor OAC6-7

Q: With “(3S,6R,9S,12R,15S,18R,21S,24R)-3,15-bis(cyclopropylmethyl)-4,6,10,16,18,22-hexamethyl-9,21-bis(2-methylpropyl)-12,24-bis([[4-(morpholin-4-yl)phenyl]methyl])-1,7,13,19-tetraoxa-4,10,16,22-tetraazacyclotetracosan-2,5,8,11,14,17,20,23-octone” as the substance, how does the cyclisation yield read?
A: 8%

Same assay, conditions: cyclisation step, on linear precursor OAC9-7

Q: With “(3S,6R,9S,12R,15S,18R,21S,24R)-3,15-bis(cyclopropylmethyl)-4,6,10,16,18,22-hexamethyl-9,21-bis(2-methylpropyl)-12,24-bis([[6-(morpholin-4-yl)pyridin-3-yl]methyl])-1,7,13,19-tetraoxa-4,10,16,22-tetraazacyclotetracosan-2,5,8,11,14,17,20,23-octone” as the substance, how does the cyclisation yield read?
A: 12%

Same assay, conditions: late stage modification step

Q: With “(1R)-1-[[(2S)-1-[[(2R)-1-(benzyloxy)-1-oxopropan-2-yl]oxy]-3-cyclopropyl-1-oxopropan-2-yl](methyl)carbamoyl]-2-[4-(morpholin-4-yl)phenyl]ethyl (2S)-4-fluoro-4-methyl-2-(methylamino)pentanoate” as the substance, how does the step yield read?
A: 99%

Q: Which step yield does the source give for “(2R)-1-(benzyloxy)-1-oxopropan-2-yl (2S)-2-[(2R)-2-[[(2S)-3-cyclopropyl-2-(methylamino)propanoyl]oxy]-N-methyl-3-[4-(morpholin-4-yl)phenyl]propanamido]-4-methylpentanoate” here?
A: 94%

Q: Which step yield does the source give for “(2R)-1-(benzyloxy)-1-oxopropan-2-yl (2S)-2-[(2R)-2-[[(2S)-3-cyclopropyl-2-(methylamino)propanoyl]oxy]-N-methyl-3-[6-(morpholin-4-yl)pyridin-3-yl]propanamido]-4-methylpentanoate” here?
A: 97%

Q: For “(2R)-2-[[(2S)-2-[(2R)-2-[(1-[[(tert-butoxy)carbonyl](methyl)amino]cyclopropyl)carbonyloxy]-N-methylpropanamido]-4-fluoro-4-methylpentanoyl]oxy]-3-[4-(oxan-4-yl)phenyl]propanoic acid”, which step yield is on record?
A: 83%

Q: With “(2R)-2-[[(2S)-2-[(2R)-2-[[(2S)-2-[[(tert-butoxy)carbonyl](methyl)amino]-3-cyclopropylpropanoyl]oxy]-N-methyl-3-[4-(morpholin-4-yl)phenyl]propanamido]-3-cyclopropylpropanoyl]oxy]propanoic acid” as the substance, how does the step yield read?
A: 88%

Q: For “(2R)-2-[[(2S)-2-[(2R)-2-[[(2S)-2-[[(tert-butoxy)carbonyl](methyl)amino]-3-cyclopropylpropanoyl]oxy]-N-methyl-3-[4-(morpholin-4-yl)phenyl]propanamido]-4-methylpentanoyl]oxy]propanoic acid”, which step yield is on record?
A: 91%

Q: For “(2R)-2-[[(2S)-2-[(2R)-2-[[(2S)-2-[[(tert-butoxy)carbonyl](methyl)amino]-3-cyclopropylpropanoyl]oxy]-N-methyl-3-[6-(morpholin-4-yl)pyridin-3-yl]propanamido]-4-methylpentanoyl]oxy]propanoic acid”, which step yield is on record?
A: 98%

Q: Which step yield does the source give for “(2R)-2-[[(2S)-2-[(2R)-2-[[(2S)-2-[[(tert-butoxy)carbonyl](methyl)amino]-4-fluoro-4-methylpentanoy-1]oxy]-N-methyl-3-[4-(oxan-4-yl)phenyl]propanamido]-3-cyclopropylpropanoyl]oxy]propanoic acid” here?
A: 97%

Q: For “(2R)-2-[[(2S)-2-[(2R)-2-[[(2S)-2-[[(tert-butoxy)carbonyl](methyl)amino]-4-fluoro-4-methylpentanoyl]oxy]-N-methyl-3-[4-(morpholin-4-yl)phenyl]propanamido]-3-cyclopropylpropanoyl]oxy]propanoic acid”, which step yield is on record?
A: 83%

Q: With “(S)—((R)-1-(benzyloxy)-1-oxopropan-2-yl) 3-cyclopropyl-2((R)-2((S)-3-cyclopropyl-2-(methylamino)propanoyloxy)-N-methyl-3-(4-morpholinophenyl)propanamido)propanoate” as the substance, how does the step yield read?
A: 94%
